Hit rate of the full screen: of about 2,300 compounds, about 1,200 (52%) were called active. So high a share suggests a set chosen from earlier hits. Inconclusive means that the source gave no clear call. Such entries were picked first, then a sample of the others. The call rests on the fitted dose curve; in most records, active means well fitted inhibition curve with a large enough effect; inconclusive means small, poorly fitted or top-dose-only effect, or effect the other way; inactive means no such curve, though single readings can be large or run the other way. Potencies of inconclusive entries are doubtful fits and often do not repeat.
Assay: Confirmation screen for delayed death inhibitors of the malarial parasite plastid, 48 hour incubation; further: nearly all actives have a fitted effect of over 65% in size
Conditions: P. falciparum-infected erythrocytes, luciferase growth; series mostly up to 28.7 µM
Excerpt: The goal of this screen is to discover new antimalarial compounds that act by inhibiting the development of the apicoplast in the malarial parasite Plasmodium falciparum. The biochemical processes that make this organelle essential for erythrocytic stage parasites are not well understood. However, antibiotics, such as azithromycin and tetracycline, which target the apicoplast translational machinery, have a potent antimalarial effect. […] We have developed a cell-based assay that measures parasite growth based on the expression of an integrated copy of a firefly luciferase reporter. To detect small molecules that cause this "delayed death phenotype, erythrocytes infected with the luciferase-expressing parasites were incubated with compounds for either one or two generations, corresponding to 48 and 96 hours, respectively. Compounds that inhibit parasite growth in the second generation, but not the first, should be enriched in antimalarials that target the apicoplast. Growth inhibition is detected by a decrease in luciferase activity. MLPCN Grant: R21 NS059500 Assay Provider: David Fidock and Eric Ekland, Columbia University Keywords: NIH Roadmap, MLPCN, MLI, MLSMR, qHTS, NCGC, qHTS, malaria, luciferase, viability
Four microliters of culture medium (RPMI 1640 with 0.5% w/v Albumax (GIBCO), 24 mM sodium bicarbonate and 10 ug/mL gentamycin) were dispensed by a Multi-drop Combi into white solid 1536-well plates (Grenier) and 23 nL compound was added by a pin tool. Four microliters of infected erythrocytes (2% hematocrit, 0.1% parasitemia final concentration) in culture medium were dispensed and the plates incubated for 48 hours at 37 C in 5% CO2. Two microliters of luciferase detection reagent was added and luminescence was detected by a ViewLux (PerkinElmer) reader.
With `CN1[C@@H](CC(=O)c2ccccc2)CCC[C@H]1C[C@H](O)c1ccccc1` the Potency was inconclusive: 14.1 µM [inhibitor, single point].
For `CCOP(=O)(OCC)C(O)c1ccc(OC)cc1OC` (centres undefined), the Potency was “inactive”.
In the case of `CCCCN=C[C@]12CCC(O)CC1(O)CCC1[C@@H]2CC[C@]2(C)[C@H](C3C=CC(=O)O3)CCC12O` (some centres undefined), the Potency is reported as “inactive”.
In the case of `Fc1ccc(C[n+]2c(-c3ccccc3)cc(-c3ccccc3)cc2-c2ccccc2)cc1`, the Potency is reported as active: 2.82 µM.
With `COc1ccc(N(CC(=O)Nc2cccc(SC)c2)S(C)(=O)=O)cc1Cl` the Potency was inconclusive: 11.2 µM [inhibitor, partial curve, poor fit].
With `C[C@@H]1C[C@@H]2O[C@H]2/C=C\C=C\C(=O)Cc2c(Cl)c(O)cc(O)c2C(=O)O1` the Potency was active: 7.08 µM.
In the case of `CC[n+]1c(-c2ccccc2)c2cc(N)ccc2c2ccc(N)cc21`, the Potency is reported as active: 1 µM.
With `CC12CC[C@H]3[C@@H](CCC4(O)C[C@H](O)CCC34/C=N/NC(=O)c3ccccc3F)C1(O)CCC2C1=CC(=O)OC1` (some centres undefined) the Potency was inconclusive: 15.8 µM [inhibitor, single point].
With `CCCCCCn1c(=O)c(C(=O)Nc2ncccc2O)c(O)c2ccccc21` the Potency was “inactive”.
In the case of `CCN1CCN(Cc2nc3ccc([N+](=O)[O-])cc3c(=O)n2-c2ccccc2F)CC1`, the Potency is reported as “inactive”.
With `O=C(CN1CC=C(c2ccccc2)CC1)NC(=O)NCc1ccccc1` the Potency was inconclusive: 17.8 µM [inhibitor, single point].
With `Clc1ccccc1CN1CCNCC1` the Potency was “inactive”.
For `Cc1ccc(N2C(=O)NC(=O)/C(=C\C=C\c3ccco3)C2=O)cc1`, the Potency was “inactive”.
In the case of `Cc1ccc(-c2nc(NC(=O)c3ccc(S(=O)(=O)N(CCC#N)CCC#N)cc3)sc2-c2ccccc2)cc1`, the Potency is reported as inconclusive: 14.1 µM [inhibitor, partial curve, poor fit].
In the case of `O=[N+]([O-])c1ccc(NC2CCCC2)c2ccncc12`, the Potency is reported as “inactive”.
With `O=C(Oc1ccc2ccccc2c1Cl)N1CCCC1` the Potency was inconclusive: 1.41 µM [activator, partial curve].
With `COc1cccc(-n2c(CN3CCN(C)CC3)nc3ccc([N+](=O)[O-])cc3c2=O)c1` the Potency was inconclusive: 15.8 µM [inhibitor, single point].
In the case of `Brc1cc2c(cc1CN1CCN(c3ccccc3)CC1)OCCO2`, the Potency is reported as inconclusive: 10 µM [inhibitor, single point].
For `CC1=CC2/C=C(\C)CCC(O)C(O)/C=C/C(=O)C23C(=O)NC(CC(C)C)C3C1C` (centres undefined), the Potency was inconclusive: 15.8 µM [inhibitor, single point].
In the case of `COc1cc(C(=O)N/N=C/C23CC[C@@H](O)CC2(O)CC[C@@H]2[C@@H]3CCC3(C)C(C4=CC(=O)OC4)CCC23O)ccc1O` (some centres undefined), the Potency is reported as “inactive”.
With `C[C@]12CC[C@H]3C(CCC4(O)CC(O)CC[C@]34C=O)C1=CC[C@H]2c1ccc(=O)oc1` (some centres undefined) the Potency was inconclusive: 14.1 µM [inhibitor, single point].
With `C[C@@H]1O[C@@H](O[C@H]2C[C@@H](O)[C@]3(CO)[C@@H]4C(CC[C@]3(O)C2)[C@@]2(O)CC[C@H](C3COC(=O)C3)[C@@]2(C)C[C@H]4O)[C@H](O)[C@H](O)[C@H]1O` (some centres undefined) the Potency was “inactive”.
In the case of `O=c1oc2ccccc2c(O)c1[C@H]1c2ccc(O)cc2Oc2c1c(=O)oc1ccccc21`, the Potency is reported as “inactive”.
For `CC12CC[C@H]3[C@@H](CCC4(O)C[C@H](O)CCC34/C=N/NC(=O)c3ccccc3O)C1(O)CCC2C1=CC(=O)OC1` (some centres undefined), the Potency was inconclusive: 17.8 µM [inhibitor, single point].
For `COc1ccc(C(=O)N/N=C/C23CC[C@@H](O)CC2(O)CC[C@@H]2[C@@H]3CCC3(C)C(C4=CC(=O)OC4)CCC23O)cc1` (some centres undefined), the Potency was “inactive”.
With `C[C@]12CC[C@H](O)C[C@H]1CC[C@@H]1[C@@H]2CC[C@]2(C)[C@@H](C3=CC(=O)OC3)CC[C@]12O` the Potency was inconclusive: 0.199 µM [inhibitor, full curve].
For `Cc1ccc(C(C)C)c(OCC(=O)N2CCN(Cc3nc4cc([N+](=O)[O-])ccc4n3C)CC2)c1`, the Potency was “inactive”.
With `C[C@]12CCC3C(CCC4=CC(O)CC[C@@]43/C=N/O)C1(O)CCC2C1=CC(=O)OC1` (some centres undefined) the Potency was “inactive”.
With `CCOC(=O)C1=C(NC(=S)NC(=O)c2ccccc2)c2ccccc2CC12CCCC2` the Potency was inconclusive: 15.8 µM [inhibitor, single point].
In the case of `C[C@]12CC[C@H](O)C[C@H]1CC[C@@H]1C2CC[C@]2(C)[C@@H](C3=CC(=O)OC3)[C@@H](O)C[C@]12O` (some centres undefined), the Potency is reported as inconclusive: 0.0251 µM [inhibitor, full curve, poor fit].
With `CN1C[C@H](C(=O)N[C@]2(C)O[C@@]3(O)[C@@H]4CCCN4C(=O)[C@H](Cc4ccccc4)N3C2=O)C[C@@H]2c3cccc4[nH]cc(c34)C[C@H]21` the Potency was active: 2.82 µM.
With `C[C@@H]1CC2(CCCC[N+]2(C)C)C[C@H]1C` the Potency was inconclusive: 14.1 µM [inhibitor, partial curve].
In the case of `C/C1=C\[C@@H](C)C/C=C/[C@H]2[C@@H]3O[C@]3(C)[C@@H](C)[C@H]3[C@H](Cc4c[nH]c5ccccc45)NC(=O)[C@]32C(=O)/C=C/C(=O)[C@@H]1O`, the Potency is reported as inconclusive: 1.12 µM [inhibitor, full curve, poor fit].
For `CC(C)c1ccc(N2C(=O)NC(=O)/C(=C\C=C\c3ccco3)C2=O)cc1`, the Potency was “inactive”.
For `O=C1C2CCCN2C(c2cccs2)N1c1ccc(Cl)cc1` (centres undefined), the Potency was inconclusive: 11.2 µM [inhibitor, partial curve, poor fit].
For `CC(=O)N1CC(=O)Nc2ccc(Cl)cc2C1c1ccccc1` (centres undefined), the Potency was “inactive”.
With `C[C@H]1C[C@@H](C)C(=O)[C@@H]([C@H](O)CC2CC(=O)NC(=O)C2)C1` the Potency was active: 0.0794 µM.
For `Cn1c(O)c(C=NC2C(=O)C3(C)CCC2C3(C)C)c(=O)n(C)c1=O` (centres undefined), the Potency was “inactive”.
With `CC(C)(C)C(=O)C(Oc1ccc(Cl)cc1)n1ccnc1` (centres undefined) the Potency was inconclusive: 14.1 µM [inhibitor, single point].
With `CCOC(=O)COc1ccc2c(c1)c(C(C)=O)c(C)n2Cc1ccccc1` the Potency was “inactive”.
With `C[C@@H]1CC[C@H]2[C@@H](C)C(=O)O[C@@H]3OC4(C)CC[C@@H]1C32OO4` (some centres undefined) the Potency was active: 0.0447 µM.
With `C[C@@H]1CC[C@H]2[C@@H](C)C(=O)O[C@@H]3O[C@@]4(C)CC[C@@H]1[C@]32OO4` the Potency was active: 0.0794 µM.
For `CC(C)N(CC#CCC1(O)c2ccccc2-c2ccccc21)C(C)C`, the Potency was inconclusive: 12.6 µM [inhibitor, single point].
In the case of `COc1ccc(-n2c(C)cc(C(=O)C[N+]34CCN(CC3)CC4)c2C)cc1`, the Potency is reported as inconclusive: 11.2 µM [inhibitor, partial curve].
For `Cc1ccccc1CCNCc1cc2cccc(C)c2[nH]c1=O`, the Potency was inconclusive: 5.62 µM [inhibitor, partial curve, poor fit].
In the case of `O=C1NC(=O)N(c2ccccc2)C(=O)/C1=C/C=C/c1ccco1`, the Potency is reported as “inactive”.
With `CCn1c(=O)oc2cc(NC(=O)CCl)ccc21` the Potency was active: 2.24 µM.
With `COc1ccc(Oc2cc(NC(=O)c3nn(C)cc3[N+](=O)[O-])cc([N+](=O)[O-])c2)cc1` the Potency was inconclusive: 15.8 µM [inhibitor, single point].
With `Cn1cc([N+](=O)[O-])c(C(=O)Nc2ccc3c(C(F)(F)F)cc(=O)oc3c2)n1` the Potency was “inactive”.

Reference: PubChem BioAssay AID504850 (National Center for Advancing Translational Sciences (NCATS), 2011)
Potency means the concentration at half of the fitted maximal effect.
